# Drug screen on melanoma cell lines: apoptosis marker

Values as published with doi:10.1371/journal.pone.0140310, rounded.

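The test systems are human melanoma cell lines, treated with two drugs together for 72 h and then stained and imaged. Each value is the cleaved-PARP-positive fraction of nuclei relative to DMSO-treated wells, in %, so that 100 equals the control and higher values mean more apoptosis. Concentrations were fixed for each drug; these are the higher of two levels. These are primary screening values without error estimates. Basal and induced levels differ widely between cell lines.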
An unselected part of the screen is shown.

Drugs:
OSI-906: C[C@]1(O)C[C@@H](c2nc(-c3ccc4ccc(-c5ccccc5)nc4c3)c3c(N)nccn32)C1 at 2000 nM
T0901317: O=S(=O)(c1ccccc1)N(CC(F)(F)F)c1ccc(C(O)(C(F)(F)F)C(F)(F)F)cc1 at 7000 nM
PLX4720: CCCS(=O)(=O)Nc1ccc(F)c(C(=O)c2c[nH]c3ncc(Cl)cc23)c1F at 400 nM
GSK650394: O=C(O)c1ccc(-c2c[nH]c3ncc(-c4ccccc4)cc23)cc1C1CCCC1 at 800 nM
YM155: COCC[n+]1c2c(n(Cc3cnccn3)c1C)C(=O)c1ccccc1C2=O at 2 nM
BI-78D3: O=c1[nH]nc(Sc2ncc([N+](=O)[O-])s2)n1-c1ccc2c(c1)OCCO2 at 1000 nM
OSU-03012: NCC(=O)Nc1ccc(-n2nc(C(F)(F)F)cc2-c2ccc3c(ccc4ccccc43)c2)cc1 at 5000 nM
NVP-BEZ235: Cn1c(=O)n(-c2ccc(C(C)(C)C#N)cc2)c2c3cc(-c4cnc5ccccc5c4)ccc3ncc21 at 20 nM
vatalanib: Clc1ccc(Nc2nnc(Cc3ccncc3)c3ccccc23)cc1 at 10000 nM
CX-4945: O=C(O)c1ccc2c(c1)nc(Nc1cccc(Cl)c1)c1ccncc12 at 2000 nM
KU-55933: O=c1cc(-c2cccc3c2Sc2ccccc2S3)oc(N2CCOCC2)c1 at 5000 nM

Pair | MEL-HO | WM3526 | SK-MEL-28 | COLO 792 | LB2518-MEL | UACC-257 | WM3619 | SK-MEL-2 | LOX IMVI | MeWo | WM115 | C32 | RVH-421 | A101D | IST-MEL1
CX-4945 + vatalanib | 215 | 238 | 55.1 | 329 | 107 | 49.7 | 149 | 68.9 | 225 | 512 | 99.9 | 62.8 | 89.2 | 80.4 | 142
OSU-03012 + GSK650394 | 81.7 | 726 | 1560 | 140 | 77.4 | 88.1 | 166 | 977 | 288 | 100 | 254 | 80.5 | 197 | 165 | 61.3
OSU-03012 + KU-55933 | 168 | 419 | 738 | 160 | 142 | 27.4 | 1400 | 565 | 130 | 69.1 | 55.7 | 88.6 | 73.9 | 220 | 91.5
NVP-BEZ235 + KU-55933 | 124 | 122 | 120 | 136 | 59.7 | 22.9 | 184 | 76.8 | 204 | 124 | 70.4 | 94.0 | 200 | 144 | 220
OSI-906 + PLX4720 | 107 | 193 | 67.8 | 71.2 | 61.8 | 22.8 | 119 | 100 | 147 | 112 | 176 | 246 | 147 | 90.8 | 585
NVP-BEZ235 + BI-78D3 | 98.1 | 119 | 66.9 | 92.1 | 36.1 | 31.3 | 154 | 94.7 | 126 | 66.0 | 125 | 154 | 116 | 114 | 132
OSU-03012 + CX-4945 | 210 | 393 | 1150 | 134 | 46.8 | 269 | 642 | 1170 | 115 | 126 | 158 | 56.8 | 50.5 | 94.6 | 212
BI-78D3 + CX-4945 | 127 | 146 | 276 | 104 | 115 | 120 | 163 | 116 | 221 | 151 | 36.1 | 79.3 | 45.1 | 78.1 | 186
T0901317 + CX-4945 | 324 | 254 | 286 | 26.7 | 126 | 133 | 142 | 204 | 148 | 151 | 31.6 | 129 | 319 | 44.6 | 401
CX-4945 + KU-55933 | 128 | 338 | 123 | 94.8 | 131 | 177 | 144 | 143 | 120 | 69.6 | 89.1 | 93.0 | 124 | 154 | 103
NVP-BEZ235 + T0901317 | 112 | 187 | 119 | 114 | 75.8 | 112 | 124 | 198 | 74.9 | 45.4 | 230 | 90.4 | 35.8 | 319 | 40.5
YM155 + KU-55933 | 61.2 | 1070 | 407 | 440 | 817 | 423 | 166 | 628 | 119 | 318 | 164 | 110 | 67.5 | 208 | 157
PLX4720 + GSK650394 | 109 | 218 | 38.1 | 193 | 370 | 115 | 123 | 166 | 65.8 | 182 | 119 | 153 | 106 | 578 | 173
KU-55933 + OSI-906 | 92.8 | 410 | 635 | 120 | 70.9 | 68.6 | 105 | 104 | 58.8 | 130 | 89.9 | 84.8 | 116 | 444 | 119
OSI-906 + GSK650394 | 161 | 222 | 110 | 58.8 | 105 | 215 | 104 | 93.0 | 254 | 74.9 | 69.8 | 98.0 | 97.9 | 66.1 | 58.1
GSK650394 + BI-78D3 | 89.6 | 159 | 72.6 | 105 | 36.6 | 49.9 | 97.5 | 222 | 403 | 163 | 119 | 57.8 | 63.0 | 121 | 195
OSI-906 + OSU-03012 | 92.4 | 561 | 584 | 290 | 62.1 | 43.6 | 1280 | 386 | 179 | 101 | 68.1 | 186 | 78.4 | 134 | 139
T0901317 + OSI-906 | 82.9 | 99.7 | 106 | 92.0 | 71.2 | 94.0 | 116 | 48.3 | 19.5 | 48.1 | 104 | 77.0 | 68.9 | 25.1 | 120
vatalanib + OSI-906 | 126 | 448 | 145 | 112 | 89.6 | 106 | 150 | 58.6 | 170 | 152 | 33.4 | 49.5 | 96.5 | 78.1 | 94.3
BI-78D3 + PLX4720 | 76.1 | 118 | 104 | 65.0 | 53.9 | 37.2 | 113 | 77.9 | 107 | 61.2 | 178 | 115 | 100 | 91.0 | 109
T0901317 + YM155 | 200 | 277 | 329 | 109 | 264 | 1640 | 109 | 579 | 55.9 | 149 | 74.0 | 94.3 | 83.1 | 149 | 105
GSK650394 + T0901317 | 59.2 | 148 | 159 | 22.6 | 71.4 | 17.7 | 158 | 126 | 186 | 197 | 130 | 96.4 | 531 | 116 | 454
YM155 + CX-4945 | 115 | 593 | 448 | 266 | 182 | 1680 | 130 | 1130 | 43.0 | 167 | 309 | 47.0 | 137 | 87.0 | 101
OSU-03012 + T0901317 | 96.6 | 402 | 1380 | 161 | 87.1 | 29.8 | 20400 | 1640 | 57.4 | 112 | 151 | 156 | 147 | 269 | 190
OSU-03012 + PLX4720 | 99.6 | 617 | 598 | 418 | 143 | 43.1 | 122 | 784 | 226 | 86.7 | 82.4 | 180 | 61.9 | 21.0 | 294
YM155 + BI-78D3 | 104 | 728 | 226 | 182 | 94.6 | 2270 | 116 | 348 | 182 | 266 | 62.5 | 58.5 | 105 | 102 | 241
PLX4720 + T0901317 | 111 | 266 | 174 | 30.1 | 59.6 | 75.2 | 114 | 59.4 | 154 | 101 | 265 | 103 | 88.9 | 82.4 | 97.7
GSK650394 + KU-55933 | 106 | 88.0 | 109 | 69.9 | 155 | 21.7 | 170 | 161 | 146 | 86.4 | 143 | 82.3 | 99.3 | 263 | 146
KU-55933 + vatalanib | 153 | 316 | 138 | 202 | 93.9 | 57.7 | 176 | 91.0 | 89.5 | 416 | 135 | 96.1 | 130 | 154 | 160
OSU-03012 + YM155 | 85.8 | 3610 | 1570 | 243 | 577 | 317 | 211 | 1170 | 114 | 274 | 189 | 118 | 138 | 156 | 136
T0901317 + vatalanib | 69.9 | 45.5 | 144 | 74.6 | 74.8 | 55.9 | 166 | 86.4 | 56.4 | 57.7 | 124 | 105 | 33.6 | 151 | 159
BI-78D3 + KU-55933 | 380 | 175 | 124 | 100 | 322 | 61.2 | 87.4 | 40.3 | 258 | 46.9 | 85.7 | 180 | 269 | 39.8 | 134
YM155 + PLX4720 | 216 | 796 | 187 | 201 | 610 | 1500 | 129 | 222 | 209 | 715 | 194 | 155 | 373 | 106 | 133
OSU-03012 + vatalanib | 73.4 | 4350 | 1200 | 139 | 192 | 69.9 | 4430 | 1390 | 277 | 167 | 128 | 105 | 132 | 56.5 | 68.0
OSI-906 + CX-4945 | 72.0 | 984 | 94.7 | 159 | 227 | 141 | 114 | 364 | 224 | 205 | 209 | 148 | 178 | 78.5 | 49.7
CX-4945 + GSK650394 | 225 | 332 | 107 | 94.4 | 91.1 | 79.1 | 134 | 182 | 71.7 | 108 | 213 | 70.4 | 115 | 120 | 260
OSI-906 + BI-78D3 | 86.9 | 84.1 | 53.6 | 53.1 | 55.0 | 34.6 | 105 | 94.5 | 91.3 | 113 | 94.8 | 88.2 | 80.5 | 75.8 | 64.3
PLX4720 + CX-4945 | 60.9 | 1220 | 53.2 | 135 | 138 | 282 | 141 | 208 | 356 | 66.4 | 233 | 226 | 84.9 | 86.7 | 355
vatalanib + BI-78D3 | 112 | 117 | 160 | 180 | 168 | 89.5 | 178 | 81.5 | 74.1 | 91.7 | 75.0 | 559 | 99.0 | 102 | 119

Some entries from above, unchanged:

- vatalanib + OSI-906 : MEL-HO: 126; WM3526: 448; SK-MEL-28: 145; COLO 792: 112; LB2518-MEL: 89.6; UACC-257: 106; WM3619: 150; SK-MEL-2: 58.6; LOX IMVI: 170; MeWo: 152; WM115: 33.4; C32: 49.5; RVH-421: 96.5; A101D: 78.1; IST-MEL1: 94.3
- T0901317 + OSI-906 : MEL-HO: 82.9; WM3526: 99.7; SK-MEL-28: 106; COLO 792: 92.0; LB2518-MEL: 71.2; UACC-257: 94.0; WM3619: 116; SK-MEL-2: 48.3; LOX IMVI: 19.5; MeWo: 48.1; WM115: 104; C32: 77.0; RVH-421: 68.9; A101D: 25.1; IST-MEL1: 120
- GSK650394 + BI-78D3 : MEL-HO: 89.6; WM3526: 159; SK-MEL-28: 72.6; COLO 792: 105; LB2518-MEL: 36.6; UACC-257: 49.9; WM3619: 97.5; SK-MEL-2: 222; LOX IMVI: 403; MeWo: 163; WM115: 119; C32: 57.8; RVH-421: 63.0; A101D: 121; IST-MEL1: 195
- OSI-906 + PLX4720 : MEL-HO: 107; WM3526: 193; SK-MEL-28: 67.8; COLO 792: 71.2; LB2518-MEL: 61.8; UACC-257: 22.8; WM3619: 119; SK-MEL-2: 100; LOX IMVI: 147; MeWo: 112; WM115: 176; C32: 246; RVH-421: 147; A101D: 90.8; IST-MEL1: 585
- GSK650394 + T0901317 : MEL-HO: 59.2; WM3526: 148; SK-MEL-28: 159; COLO 792: 22.6; LB2518-MEL: 71.4; UACC-257: 17.7; WM3619: 158; SK-MEL-2: 126; LOX IMVI: 186; MeWo: 197; WM115: 130; C32: 96.4; RVH-421: 531; A101D: 116; IST-MEL1: 454